The record followed here is patent publication US7368427 (dated 2008).

The data set can be described thus: general procedure: Boc solid-phase peptide synthesis; MBHA resin; diisopropylcarbodiimide; HBTU/DIEA. The settings on record: whole synthesis, scale 0.20 mmol.

[Aib^8, A6c^32]hGLP-1(7-36)NH2: the isolated mass stood at 92 mg. Moreover, where the note is “analytical HPLC”, the “final HPLC purity” value is greater than 99%.
